According to ChEMBL document CHEMBL5528012, “Discovery of novel deoxyvasicinone derivatives with benzenesulfonamide substituents as multifunctional agents against Alzheimer's disease” (Eur J Med Chem, 2024):

Test: in vitro
Details: PAMPA, pH 7.4

Work on `COc1cc2c(cc1OC)C(=O)C(CC1CCN(Cc3ccccc3)CC1)C2` (stereo unspecified) [DONEPEZIL] yielded a Papp at 50 µM of 18.6 ×10⁻⁶ cm/s.
